# Measurements published in PubChem BioAssay AID485353 (National Center for Advancing Translational Sciences (NCATS), 2010).
# The whole screen tested about 330,000 compounds, of which about 610 (0.18%) were called active. Inconclusive means that the source gave no clear call. Such entries were picked first, then a sample of the others. Calls come from the whole dose curve. Potencies beside an inconclusive call are fits to weak or partial responses and may not hold up.
# Experiment: qHTS of Yeast-based Assay for SARS-CoV PLP; note: nearly all actives have a fitted effect of over 55% in size
# Settings: S. cerevisiae expressing SARS-CoV PLpro; Potency: growth rescue; series mostly up to 32.9 µM
# Potency is the fitted concentration of half-maximal effect.
row,SMILES,Potency
1,O=C(C1CCCN(c2ncnc3c2nc2n3CCCCC2)C1)N1CCN(c2ccccc2)CC1 (stereo unspecified),"inconclusive: 2.51 µM [activator, single point]"
2,CN(CC(=O)Nc1ccc(Cl)c(Cl)c1)C(=O)C1CCCC1,inactive
3,COc1ccc(-c2noc(CN(C)Cc3ccc(C)o3)n2)cc1,"inconclusive: 20 µM [activator, single point]"
4,COc1cccc(C2c3c(oc4ccc(Cl)cc4c3=O)C(=O)N2c2cc(C)on2)c1OC (stereo unspecified),"inconclusive: 10 µM [activator, partial curve]"
5,Cc1cc(C)n(CC(O)Cn2c3ccccc3c3ccccc32)n1 (stereo unspecified),inactive
6,O=C(N/N=C\c1c(O)ccc2ccccc12)c1ccc(Cn2cccn2)o1,"inconclusive: 1.58 µM [activator, full curve, poor fit]"
7,CN(C)c1ccc(/C=N\NC(=S)SCN2C(=O)C3CCC(C)(C2=O)C3(C)C)cc1 (stereo unspecified),active: 12.6 µM
8,CCNC(=S)SCCOc1ccccc1C,"inconclusive: 22.4 µM [activator, single point]"
9,O=C(Nc1ccc2c(c1)OCCO2)c1cc(-c2ccccn2)nc2ccc(Br)cc12,inactive
10,CC(c1ccncn1)N(C)Cc1nc(-c2ccc(C(F)(F)F)cc2)no1 (stereo unspecified),inactive
11,C=CCc1cc(OC)ccc1OCCN(C)Cc1ccccc1,"inconclusive: 20 µM [activator, single point]"
12,CN(CC1CCCO1)S(=O)(=O)c1ccc(C(=O)Nc2ccc(S(N)(=O)=O)cc2)cc1 (stereo unspecified),active: 0.398 µM
13,O=C(COc1cccc2ccccc12)N/N=C/c1ccc(Sc2nc3ccccc3s2)o1,inactive
14,NC(=S)N/N=C/C=C/c1ccccc1,active: 1.58 µM
15,CCOc1ccc2c(c1)c1nnc(SCC(=O)NC3CC3)nc1n2C,inactive
16,CCNC(=O)c1ccccc1-c1nc(-c2ccccc2Cl)no1,"inconclusive: 20 µM [activator, single point]"
17,CCN1CCN(c2ncnc3c2nnn3Cc2ccccc2)CC1,"inconclusive: 22.4 µM [activator, partial curve]"
18,S=C(N/N=C/c1ccccc1Cl)Nc1ccccc1,"inconclusive: 2.24 µM [activator, single point]"
19,CCOC(=O)[C@H]1[C@H]2COc3ccc(Cl)cc3[C@@H]2N2C(=O)CN(C)C(=O)[C@@]12C,"inconclusive: 10 µM [activator, single point]"
20,CCc1ccccc1NC(=O)NC1CCCCC1,"inconclusive: 8.91 µM [activator, partial curve]"
21,Cc1cc(C)cc(C(=O)N(c2ccccn2)C(C)c2ccco2)c1 (stereo unspecified),"inconclusive: 3.98 µM [activator, single point]"
22,COc1ccc(C(C)=O)cc1COC(=O)CCNS(=O)(=O)c1ccc(C(C)=O)cc1,"inconclusive: 0.708 µM [activator, full curve]"
23,COCCNC(=O)c1onc(CSc2ccc(C)c(C)c2)c1C(=O)O,"inconclusive: 3.98 µM [activator, single point]"
24,Cc1ccc(O)c(/C=N/NC(=O)C2=NNC(c3ccccc3)(c3ccccc3)C2)c1,active: 6.31 µM
25,COc1cccc(N2C(=O)CC(NNC(=O)c3cccs3)C2=O)c1 (stereo unspecified),"inconclusive: 4.47 µM [activator, partial curve]"
26,CCn1c(SCC(=O)c2ccc(Cl)cc2)nnc1-c1ccoc1C,"inconclusive: 3.98 µM [activator, single point]"

# Rewritten as tab-separated lines: entries from further up
row	SMILES	Potency
19	CCOC(=O)[C@H]1[C@H]2COc3ccc(Cl)cc3[C@@H]2N2C(=O)CN(C)C(=O)[C@@]12C	inconclusive: 10 µM [activator, single point]
20	CCc1ccccc1NC(=O)NC1CCCCC1	inconclusive: 8.91 µM [activator, partial curve]
21	Cc1cc(C)cc(C(=O)N(c2ccccn2)C(C)c2ccco2)c1 (stereo unspecified)	inconclusive: 3.98 µM [activator, single point]
22	COc1ccc(C(C)=O)cc1COC(=O)CCNS(=O)(=O)c1ccc(C(C)=O)cc1	inconclusive: 0.708 µM [activator, full curve]

# Next part

row,SMILES,Potency
1,N#C/C(=C\c1ccc(Oc2ccc(C(F)(F)F)cc2[N+](=O)[O-])cc1)c1nc2ccccc2[nH]1,inactive
2,Cc1c(C(=O)N2CCN(c3ccccn3)CC2)sc2ncnc(N3CCOCC3)c12,inactive
3,CCn1cc(C(=O)N[C@H](C(=O)NCCCN2CCOCC2)C(C)C)c(=O)c2cc3c(cc21)OCO3,"inconclusive: 3.16 µM [activator, single point]"
4,O=C1CSC(c2ccc(F)cc2)N1c1c(F)cccc1F (stereo unspecified),inactive
5,COc1ccc(C)cc1NC(=O)CN1C(=O)COc2ccc(C)cc21,"inconclusive: 0.398 µM [activator, full curve]"
6,Cn1c(N)c(C(=O)COC(=O)Cc2ccc(Cl)c(Cl)c2)c(=O)n(C)c1=O,"inconclusive: 11.2 µM [activator, partial curve]"
7,N#CC1=C(N)N(c2ccccc2)C(c2ccco2)C1(C#N)C#N (stereo unspecified),"inconclusive: 2.51 µM [activator, single point]"
8,CCN(CC1COc2ccccc2O1)C(=S)Nc1ccc(F)cc1 (stereo unspecified),"inconclusive: 20 µM [activator, single point]"
9,O=C(c1cc([N+](=O)[O-])ccc1Cl)N1CCN(c2ccccc2)CC1,"inconclusive: 10 µM [activator, single point]"
10,Cc1nc(N)c(C#N)c(-c2ccc3c(c2)OCO3)c1C,inactive
11,CCc1cccc(C)c1NC(=S)NCc1ccccc1,"inconclusive: 20 µM [activator, single point]"
12,O=C(NCC1CCCO1)c1cc2c(=O)[nH]c3ccccc3c2s1 (stereo unspecified),inactive
13,CS(=O)(=O)Nc1ccc(C(=O)Nc2ccccc2C(=O)N2CCCC2)cc1,active: 15.8 µM
14,O=[N+]([O-])c1ccc(O)c(N=Cc2sc3ccccc3c2O)c1,"inconclusive: 1.41 µM [activator, full curve]"
15,COc1cccc(C(=O)NC(C)c2ccc(Br)cc2)c1 (stereo unspecified),inactive
16,CCn1c(-c2cc(Cl)ccc2OC)n[nH]c1=S,inactive
17,C=CCn1c(O)c(N=NC(=S)Nc2cccc(C)c2)c2ccccc21,"inconclusive: 17.8 µM [activator, single point]"
18,Cn1c(/N=C/c2c(O)ccc3ccccc23)nc2ccccc21,"inconclusive: 14.1 µM [activator, single point]"
19,C=CCn1c(-c2cccs2)nc2ccccc21,inactive
20,CCCCC(=O)NC(c1ccccc1)c1ccc2cccnc2c1O (stereo unspecified),active: 4.47 µM
21,CCC(CC)C(=O)Nc1nnc(SCC(=O)N2CCN(c3ccccc3OC)CC2)s1,"inconclusive: 20 µM [activator, single point]"
22,COCC(C)OC(=O)c1c(N)n(CC(C)C)c2nc3ccccc3nc12 (stereo unspecified),inactive
23,COc1ccc2c(C(=O)CN3CCN(c4ccccc4)CC3)c[nH]c2c1,inactive
24,Cc1ccc(-c2cc(C(F)F)nc(N3CCC(C)CC3)n2)cc1,"inconclusive: 4.47 µM [activator, single point]"
25,COc1ccc(C(=O)Nc2ccccc2C(=O)NC(C(=O)NCc2ccco2)C(C)C)cc1 (stereo unspecified),inactive
26,CNC(=O)COc1coc(CN2CCN(c3ccccc3OC)CC2)cc1=O,inactive

row,SMILES,Potency
1,N/C(=N\OC(=O)c1cccc(C(F)(F)F)c1)c1cnccn1,"inconclusive: 12.6 µM [activator, single point]"
2,CCCN1C(=O)C(NC(=O)c2ccncc2)(C(F)(F)F)C2=C1CC(C)(C)CC2=O (stereo unspecified),"inconclusive: 2.82 µM [activator, single point]"
3,CCCCN(CCCC)CC(O)COc1ccccc1Br (stereo unspecified),inactive
4,O=C(CSc1ccc(Cl)cc1)Nc1ccc(N2CCN(C(=O)c3ccco3)CC2)cc1,inactive
5,COc1ccc(-c2cc(C)no2)cc1S(=O)(=O)N1CCN(c2cccc(C)c2)C(C)C1 (stereo unspecified),inactive
6,Cc1ccc(S(=O)(=O)N(Cc2cccc(F)c2)C(=O)N2CCN(C)CC2)cc1,"inconclusive: 4.47 µM [activator, single point]"
7,NC(=O)c1ccccc1NC(=O)CSC1=NCCS1,"inconclusive: 3.98 µM [activator, single point]"
8,Cc1sc2ncnc(NCC3COc4ccccc4O3)c2c1C (stereo unspecified),"inconclusive: 4.47 µM [activator, single point]"
9,COc1cc(OC)cc(C(=O)NC(=S)NCCc2ccccc2)c1,"inconclusive: 3.16 µM [activator, partial curve]"
10,CC(=O)CCC(=O)c1ccc2ccccc2c1,"inconclusive: 14.1 µM [activator, partial curve]"
11,Cc1cccc(NC(=O)NCC(c2cccnc2)N2CCOCC2)c1 (stereo unspecified),active: 17.8 µM
12,COc1ccccc1NC(=O)CSc1nc2n[nH]c(C)c2c(=N)n1-c1ccccc1Cl,"inconclusive: 1 µM [activator, partial curve]"
13,CCC(C(=O)O)N1C(=O)/C(=C/c2cccn2C)SC1=S (stereo unspecified),"inconclusive: 2.82 µM [activator, single point]"
14,COc1ccc(C(=O)N2CCCC(CO)(Cc3ccccc3C)C2)o1 (stereo unspecified),inactive
15,COc1cc(C(=O)Nc2ccccc2N2CCN(S(C)(=O)=O)CC2)cc(OC)c1OC,"inconclusive: 2.51 µM [activator, single point]"
16,COc1cc(C(N)=O)cc(Br)c1OC,"inconclusive: 3.16 µM [activator, single point]"
17,CC(C)c1ccc(N2C(=O)NC(=O)/C(=C/c3cnc(-c4ccccc4)nc3)C2=O)cc1,inactive
18,O=C(CN1C(=O)NC2(CCCCC2)C1=O)Nc1ccccc1N1CCCC1,inactive
19,COc1ccccc1NC(=O)COC(=O)c1ccc2c(c1)nc(C)n2-c1ccccc1,inactive
20,COc1ccc(S(=O)(=O)Nc2ccccc2C(=O)N2CCOCC2)cc1Cl,"inconclusive: 3.98 µM [activator, single point]"
21,O=S(=O)(c1cccc(-c2nnc3n2CCCCC3)c1)N1CCCC1,inactive
22,O=C(Nc1cccc(-c2csc(Nc3ccc(Cl)cc3)n2)c1)c1cccc(C(F)(F)F)c1,inactive
23,O=C(N/N=C\c1c(O)ccc2ccccc12)c1ccc(S(=O)(=O)N2CCCCC2)cc1,active: 3.98 µM
24,COc1ccc(N2C(C(C)=O)=NN(c3ccccc3)C2c2cccs2)cc1 (stereo unspecified),"inconclusive: 0.355 µM [activator, full curve]"

# Sorted by length of the SMILES (rising): three of the compounds above.
row,SMILES,Potency
20,COc1ccc(S(=O)(=O)Nc2ccccc2C(=O)N2CCOCC2)cc1Cl,"inconclusive: 3.98 µM [activator, single point]"
12,COc1ccccc1NC(=O)CSc1nc2n[nH]c(C)c2c(=N)n1-c1ccccc1Cl,"inconclusive: 1 µM [activator, partial curve]"
23,O=C(N/N=C\c1c(O)ccc2ccccc12)c1ccc(S(=O)(=O)N2CCCCC2)cc1,active: 3.98 µM
